The test system of assay [1] is BDF1 mice, L1210 leukemia sc, survival T/C. As to the kind of experiment: NCI In Vivo Anticancer Drug Screen. Data for tumor model L1210 Leukemia (subcutaneous) in B6D2F1 (BDF1) mice. The settings on record: T/C endpoint: median survival time, higher T/C = longer survival. A digest of the protocol:
(§1)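 Mice carrying transplanted tumors received test compounds, and survival or tumor size was measured. Values are the treated-group measurement (T) divided by that of the vehicle-treated control group (C).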

Assay [2] relates to BDF1 mice, L1210 leukemia sc. Described as above. The conditions noted are these: T/C endpoint: median survival time, higher T/C = longer survival. The procedure, abridged: as §1
The mark [3] stands for this setting: dose: 1.8 mg/kg/injection, schedule: Q01DX Z (sc), vehicle: saline.
[4] abbreviates: dose: 2.8 mg/kg/injection, schedule: Q01DX Z (sc), vehicle: saline.
The mark [5] stands for this setting: dose: 4.7 mg/kg/injection, schedule: Q01DX Z (sc), vehicle: saline.
[6] abbreviates: dose: 8.4 mg/kg/injection, schedule: Q01DX Z (sc), vehicle: saline.
[7] abbreviates: dose: 13.0 mg/kg/injection, schedule: Q01DX Z (sc), vehicle: saline.
Where [8] appears, read: dose: 14.0 mg/kg/injection, schedule: Q01DX Z (sc), vehicle: saline.
Where [9] appears, read: dose: 22.0 mg/kg/injection, schedule: Q01DX Z (sc), vehicle: saline.
[10] abbreviates: dose: 23.0 mg/kg/injection, schedule: Q01DX Z (sc), vehicle: saline.
Setting [11] is: dose: 3.0 mg/kg/injection, schedule: Q01DX Z (sc), vehicle: saline.
Setting [12] is: dose: 65.0 mg/kg/injection, schedule: Q01DX Z (sc), vehicle: saline.

The list is a part of this screen's results and no random one: it is rich in T/C values a quarter to a half above the control, in often repeated tests (any T/C) and in doses without a T/C. Other doses and runs of a compound stand elsewhere. T/C gives the treated animals as a percentage of the vehicle group. Some doses have a count of surviving animals in place of a T/C: the source holds a T/C of zero for them, seemingly a mark for toxic or unscored doses. Some survivor counts are full or nearly so, which does not show that the dose was tolerated: survival well below the control is almost never listed, so the zero probably covers shortened survival too. For part of these data: Survivors were counted at the toxicity check, usually on the fifth day, unless a day is given; later deaths do not show. Schedules are NCI's codes, read here as Q, the interval in days (D) or hours (H), X, the number of doses. Some schedules carry Z or #; the key to these is not given. Some structures stand for samples that the source files as different forms (salt, stereo form or complex); doses refer to the form tested. Some doses were run more than once; their values stand side by side, smallest first. For part of these data: Where survival is the endpoint, the PubChem record calls one and a half times the control and up active, and a quarter to a half above the control has no call in these data; cut-offs in other NCI protocols can differ. Some T/C values are followed by the survivors on the day toxicity was checked, most often the fifth; without a count, all were alive then.

As to `C=CC(O)CN1CC1` (configuration not stated), the survivor count is on record as 2 of 10 in assay [1] (dose: 1.7 mg/kg/injection, schedule: Q01DX Z (sc), vehicle: saline); 6 of 10 in assay [1] (setting [3]); 3 of 10 in assay [1] (setting [4]); 3 of 10 in assay [1] (setting [5]); 7 of 10 in assay [1] (dose: 7.8 mg/kg/injection, schedule: Q01DX Z (sc), vehicle: saline); 6 of 10 in assay [1] (setting [6]). For the same compound, the survivor count is given as 7 of 10 in assay [1] (setting [7]); 5 of 10 in assay [1] (setting [8]); 7 of 10 in assay [1] (setting [9]); 3 of 10 in assay [1] (setting [10]); 5 of 10 in assay [1] (dose: 36.0 mg/kg/injection, schedule: Q01DX Z (sc), vehicle: saline); 5 of 10 in assay [1] (dose: 39.0 mg/kg/injection, schedule: Q01DX Z (sc), vehicle: saline). For the same compound, the survivor count in assay [1] (dose: 60.0 mg/kg/injection, schedule: Q01DX Z (sc), vehicle: saline) was 0 of 10; in assay [1] (dose: 108.0 mg/kg/injection, schedule: Q01DX001 (sc), vehicle: saline) it was 2 of 8; in assay [1] (dose: 108.0 mg/kg/injection, schedule: Q## X Z (sc), vehicle: saline), 1 of 8; in assay [1] (dose: 180.0 mg/kg/injection, schedule: Q01DX001 (sc), vehicle: saline), 0 of 8; in assay [1] (dose: 300.0 mg/kg/injection, schedule: Q01DX001 (sc), vehicle: saline), 0 of 8. The T/C is 125 % of control [8 of 10 alive] in assay [2] (dose: 1.08 mg/kg/injection, schedule: Q01DX Z (sc), vehicle: saline); 140 % of control in assay [2] (setting [4]); 140 % of control in assay [2] (setting [11]); 144 % of control in assay [2] (setting [5]); 145 % of control in assay [2] (setting [6]); 136 % of control in assay [2] (dose: 8.4 mg/kg/injection, schedule: Q02DX Z (sc), vehicle: saline). Besides, the T/C was 133 and 145 % of control in assay [2] (setting [7]); 136 % of control in assay [2] (setting [8]); 133 % of control [9 of 10 alive] in assay [2] (setting [9]); 127 % of control in assay [2] (dose: 23.0 mg/kg/injection, schedule: Q01DX001 (sc), vehicle: saline); 127 % of control in assay [2] (setting [10]); 131 % of control in assay [2] (dose: 39.0 mg/kg/injection, schedule: Q01DX001 (sc), vehicle: saline). For the same compound, the T/C in assay [2] (dose: 39.0 mg/kg/injection, schedule: Q02DX Z (sc), vehicle: saline) was 127 % of control.
In the case of `COc1cccc2c1C(=O)c1c(O)c3c(c(O)c1C2=O)C[C@@](O)(C(C)=O)C[C@@H]3OC1CC(N)C(O)C(C)O1` (some centres not stated), the survivor count in assay [1] (dose: 8.0 mg/kg/injection, schedule: Q04DX003 (ip), vehicle: saline) is 10 of 10; in assay [1] (dose: 16.0 mg/kg/injection, schedule: Q04DX003 (ip), vehicle: saline), 10 of 10. Also, the T/C was 140 % of control in assay [2] (setting [6]); 133 % of control in assay [2] (dose: 8.4 mg/kg/injection, schedule: Q01DX Z (sc), vehicle: water); 140 % of control in assay [2] (dose: 8.6 mg/kg/injection, schedule: Q01DX Z (sc), vehicle: saline); 130 % of control in assay [2] (setting [8]); 130 % of control in assay [2] (dose: 14.4 mg/kg/injection, schedule: Q01DX Z (sc), vehicle: saline); 135 % of control in assay [2] (dose: 18.0 mg/kg/injection, schedule: Q04DX003 (sc), vehicle: water, evaluated on day 5). Besides, the T/C in assay [2] (dose: 18.0 mg/kg/injection, schedule: Q04DX003 (sc), vehicle: water, evaluated on day 45) was 138 % of control.
For `COCCCN=C(N)c1ccc(NC(=O)c2ccc(C(=O)Nc3ccc(C(N)=NCCCOC)cc3)cc2)cc1`, the survivor count in assay [1] (setting [12]) is given as 10 of 10. The T/C in assay [2] (setting [8]) and in assay [2] (setting [10]) was 125 % of control in each case.
In the case of `O=C1CN=C(c2ccc[nH]2)c2cc(Cl)ccc2N1`, the survivor count is listed as 2 of 6 in assay [1] (dose: 120.0 mg/kg/injection, schedule: Q01DX009 (ip), vehicle: other); 0 of 6 in assay [1] (dose: 180.0 mg/kg/injection, schedule: Q01DX009 (ip), vehicle: other); 6 of 10 in assay [1] (dose: 200.0 mg/kg/injection, schedule: Q01DX009 (ip), vehicle: Klucel (hydroxypropylcellulose) (HPC)); 0 of 6 in assay [1] (dose: 270.0 mg/kg/injection, schedule: Q01DX009 (ip), vehicle: other); 0 of 10 in assay [1] (dose: 400.0 mg/kg/injection, schedule: Q01DX009 (ip), vehicle: Klucel (hydroxypropylcellulose) (HPC)); 7 of 8 in assay [1] (dose: 800.0 mg/kg/injection, schedule: Q01DX009 (ip), vehicle: steroid suspending solution). In assay [1] (dose: 3855.0 mg/kg/injection, schedule: Q01DX009 (sc), vehicle: Klucel (hydroxypropylcellulose) (HPC)), the survivor count is reported as 5 of 8. The T/C in assay [2] (dose: 500.0 mg/kg/injection, schedule: Q01DX009 (sc), vehicle: Klucel (hydroxypropylcellulose) (HPC), evaluated on day 7) is 147 % of control; in assay [2] (dose: 500.0 mg/kg/injection, schedule: Q01DX009 (sc), vehicle: Klucel (hydroxypropylcellulose) (HPC), evaluated on day 30), 144 % of control; in assay [2] (dose: 800.0 mg/kg/injection, schedule: Q08DX009 (sc), vehicle: Klucel (hydroxypropylcellulose) (HPC), evaluated on day 7) it was 133 % of control; in assay [2] (dose: 800.0 mg/kg/injection, schedule: Q08DX009 (sc), vehicle: Klucel (hydroxypropylcellulose) (HPC), evaluated on day 37), 133 % of control; in assay [2] (dose: 833.0 mg/kg/injection, schedule: Q01DX009 (sc), vehicle: Klucel (hydroxypropylcellulose) (HPC), evaluated on day 7), 142 % of control; in assay [2] (dose: 833.0 mg/kg/injection, schedule: Q01DX009 (sc), vehicle: Klucel (hydroxypropylcellulose) (HPC), evaluated on day 30), 138 % of control. In addition, the T/C in assay [2] (dose: 1388.0 mg/kg/injection, schedule: Q01DX009 (sc), vehicle: Klucel (hydroxypropylcellulose) (HPC), evaluated on day 7) was 144 % of control; in assay [2] (dose: 1388.0 mg/kg/injection, schedule: Q01DX009 (sc), vehicle: Klucel (hydroxypropylcellulose) (HPC), evaluated on day 30) it was 138 % of control [7 of 8 alive]; in assay [2] (dose: 1600.0 mg/kg/injection, schedule: Q08DX009 (sc), vehicle: Klucel (hydroxypropylcellulose) (HPC), evaluated on day 7) it was 138 % of control; in assay [2] (dose: 1600.0 mg/kg/injection, schedule: Q08DX009 (sc), vehicle: Klucel (hydroxypropylcellulose) (HPC), evaluated on day 37) it was 138 % of control.
With `NC(Cc1ccc(N(CCCl)CCCl)cc1)C(=O)O` (configuration not stated), the survivor count in assay [1] (setting [3]) was 5 of 10 and 6 of 10; in assay [1] (setting [11]), 4 of 10. Besides, the T/C in assay [2] (setting [8]) was 133 % of control; in assay [2] (dose: 14.0 mg/kg/injection, schedule: Q01DX Z (sc), vehicle: water), 127 % of control; in assay [2] (setting [10]), 133 % of control; in assay [2] (dose: 23.3 mg/kg/injection, schedule: Q01DX Z (sc), vehicle: water) it was 140 % of control; in assay [2] (dose: 38.9 mg/kg/injection, schedule: Q01DX Z (sc), vehicle: water) it was 127 % of control; in assay [2] (setting [12]) it was 133 % of control.
Take `Nc1ccc(O)cc1`: the survivor count in assay [1] (dose: 65.0 mg/kg/injection, schedule: Q01DX Z (sc), vehicle: methylcellulose (MC)) was 5 of 10; in assay [1] (dose: 108.0 mg/kg/injection, schedule: Q01DX Z (sc), vehicle: methylcellulose (MC)), 4 of 10; in assay [1] (dose: 180.0 mg/kg/injection, schedule: Q01DX Z (sc), vehicle: methylcellulose (MC)), 4 of 10; in assay [1] (dose: 1000.0 mg/kg/injection, schedule: Q01DX Z (sc), vehicle: other), 0 of 10. In addition, the T/C in assay [2] (dose: 360.0 mg/kg/injection, schedule: Q01DX Z (sc), vehicle: other) is 133 % of control.
